From US20200147028A1, “TREATMENT OF RESPIRATORY INFECTION WITH A TLR2 AGONIST” (Ena Therapeutics Pty Ltd, priority 2017, published 2020)
Some entries share one result that the patent states for a list of compounds.

Tested on: Rhinovirus serotype 1B (RV1B)
Test: Mouse RV1B infection model: lung viral RNA by qPCR
Details: Study 1E, day −7 (discussion)

Compound	reduction in lung viral load [%]
CCC(=O)OCC(CSCC(N)C(=O)NC(CO)C(=O)NCCOCC(=O)NCC(N)=O)OC(=O)CC (stereo not drawn) [INNA-006, Pam2Cys-Ser-PEG]	> 80
Pam2Cys-SS-PEG [INNA-003]	> 80
